For part of these data: End groups of sequences in plain letters are not given here. Where no end group is shown, it is not given here. [ ]: non-standard residue; d: D form. Cit = NC(=O)NCCC[C@H](N)C(=O)O
Assays:
RA sera = assay: IgG response to cyclic citrullinated FBG peptides in RA and control sera; type: binding, human; settings: positivity defined using the 95th percentile of the normal group, n=20
From the text: (A) Peptides with sequences corresponding to the amino acid sequence of FBG were designed, with the addition of cysteine residues at the amino and carboxy termini and the exchange of arginine for citrulline residues at positions identified by LC-MS/MS. (B) IgG response to citrullinated FBG peptides and arginine containing control peptides in patients with rheumatoid arthritis (RA; n=20) and healthy controls (n=20). The 95th percentile of the control sera was used to determine positivity (dashed line). Mann-Whitney U test was used to calculate p values for differences between groups (n.s.=no significant difference, *=p<0.05 and **=p<0.01, ***=p<0.001, […]).
With reference to FIG. 31, the antibody response in 20 RA and 20 control sera to 6 cyclic FBG peptides, encompassing citrulline residues was evaluated.

peptide made by a vendor = settings: whole synthesis
serum from RA patients = assay: Western blot of citrullinated tenascin-C probed with serum from RA patients or healthy controls; type: binding, human
Protocol: SDS PAGE of Citrullinated Proteins 33.33 ul of citrullination reaction (cit-TNC alone or cit-TNC combined with cit-FBG) was loaded into NuPAGE® Novex 4-12% Bis-tris gel using a 1.0 mm 2D single lane well.
After electrophoresis proteins were transferred to nitrocellulose and the membrane blocked and then cut into strips (up to 8 strips ˜0.7 cm wide). Strips were incubated with serum from RA patients or normal healthy individuals diluted 1:100 in 5% milk TBS-tween. Strips were incubated in 15 ml falcon tubes on rollers 1 h room temperature, then washed 3 ×5 min, 1×15 min in tubes with TBS-Tween. Strips were then incubated with secondary mouse anti-human Ig 1:5000 1 h in room temperature, then washed 3×5 min, 1×15 min in the dish with TBS-tween. Strips were finally incubated with ECL reagents and exposed to film.

Substance	RA patients positive for the epitope (RA sera)	healthy controls exhibiting positivity (RA sera)	outcome (peptide made by a vendor)	RA patients reacting by Western blot (serum from RA patients; 50 RA patients, serum 1:100)	controls reacting by Western blot (serum from RA patients; 50 normal healthy controls)
CEMKLRPSNFRNLEG-Cit-Cit-KRC [CIT219/220]	~30%	none			
CEMKL-Cit-PSNF-Cit-NLEGRRKRC [CIT209/214]	~20%	none			
RSFSTFDKDTDSAITNCALSYKGAFWYRN			The facility was unable to synthesize peptide 7		
citrullinated tenascin-C: purified human recombinant tenascin-C citrullinated in vitro with PAD				20%	none
CVFLRRKNG[Cit]ENFYQNWC (cysteine pairing not given here) [CIT55]	about 35%	none			

Source: US20170009228A1 (IMPERIAL INNOVATIONS LIMITED, priority 2014, published 2017)
